Values joined by “and” are separate entries in the source; they are usually repeats but may differ in a detail not shown here. Equal entries are not always repeated. The list shows a part of the results. This data set is noisy: repeats of one test often differ as much as different tests do.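 HEK293T cells were given each compound shortly before transfection with a reporter in which red mCherry is followed by the SARS-CoV-2 frameshift element and then GFP in the −1 frame, so GFP appears only after frameshifting.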

The assay concerns HEK293T. Briefly: percent viability (nuclei count) relative to control; higher = more viable cells. As to conditions: 10 µM; 24 h.
As to `CCC[C@@H]1C[C@@H](C(=O)N[C@@H]([C@H]2O[C@H](SC)[C@H](O)[C@@H](O)[C@H]2O)[C@@H](C)O)N(C)C1` [Lincomycin], the percent viability is 174%. The result for `CC(NNC(=O)c1ccccc1)c1ccccc1` (stereo not drawn) [benmoxin] reads 164%; that for `Nc1nc(Cl)nc2c1ncn2[C@@H]1O[C@H](CO)[C@@H](O)[C@@H]1F` [clofarabine], 263% and 104%; that for `CC(C)NC[C@H](O)COc1ccc(CCOCC2CC2)cc1` [levobetaxolol], 178%. As to `CC(C)CN(C[C@@H](O)[C@H](Cc1ccccc1)NC(=O)O[C@H]1CCOC1)S(=O)(=O)c1ccc(N)cc1` [amprenavir], the percent viability is 198%. For `C[C@@H]1C[C@H]2[C@@H]3CCC4=CC(=O)C=C[C@]4(C)[C@@]3(F)[C@@H](O)C[C@]2(C)[C@@]1(O)C(=O)COP(=O)(O)O` the value was 117%. The result for `NC(=O)C1(N2CCCCC2)CCN(CCCC(=O)c2ccc(F)cc2)CC1` [pipamperone] reads 212%; that for `Nc1[nH]cnc2ncnc1-2` [Adenine], 202%; that for `NCCCC[C@H](N)C(=O)O` [lysine], 247%. For `CN(CCOc1ccc(CC2SC(=O)NC2=O)cc1)c1ccccn1` (stereo not drawn) [rosiglitazone] the value was 225%.

As for `CCOC(Nc1ccc(C(=O)O)cc1)C(=O)c1ccc(-c2ccccc2)cc1` (stereo not drawn) [xenazoic acid], the percent viability is 140%. The result for `CCCOc1ccccc1-c1nc2[nH]nnc2c(=O)[nH]1` [Zaprinast] reads 244%; that for `C[N+](C)(C)CCOP(=O)(O)OP(=O)([O-])OC[C@H]1O[C@@H](n2ccc(N)nc2=O)[C@H](O)[C@@H]1O` [citicoline], 86.3%.

(Values after the supplement of paper PMC8256030.)
